Experimental data published in publication PMC4682171.
No constants are given. Whether binding was seen depends on the method and setting. Binding seen in cells or lysates may run through a third protein. Binding can be weak; no strength is given. For some of these results: Tags and fused reporters may be left off the sequences shown.

By UniProt entry, the sequences of proteins in these tests, tags left out.
UniProt P63208: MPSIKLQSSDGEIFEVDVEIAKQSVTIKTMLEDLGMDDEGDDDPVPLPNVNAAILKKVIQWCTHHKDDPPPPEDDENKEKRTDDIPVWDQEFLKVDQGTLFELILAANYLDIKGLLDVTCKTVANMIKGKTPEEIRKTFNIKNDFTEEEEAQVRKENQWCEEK
UniProt Q13616: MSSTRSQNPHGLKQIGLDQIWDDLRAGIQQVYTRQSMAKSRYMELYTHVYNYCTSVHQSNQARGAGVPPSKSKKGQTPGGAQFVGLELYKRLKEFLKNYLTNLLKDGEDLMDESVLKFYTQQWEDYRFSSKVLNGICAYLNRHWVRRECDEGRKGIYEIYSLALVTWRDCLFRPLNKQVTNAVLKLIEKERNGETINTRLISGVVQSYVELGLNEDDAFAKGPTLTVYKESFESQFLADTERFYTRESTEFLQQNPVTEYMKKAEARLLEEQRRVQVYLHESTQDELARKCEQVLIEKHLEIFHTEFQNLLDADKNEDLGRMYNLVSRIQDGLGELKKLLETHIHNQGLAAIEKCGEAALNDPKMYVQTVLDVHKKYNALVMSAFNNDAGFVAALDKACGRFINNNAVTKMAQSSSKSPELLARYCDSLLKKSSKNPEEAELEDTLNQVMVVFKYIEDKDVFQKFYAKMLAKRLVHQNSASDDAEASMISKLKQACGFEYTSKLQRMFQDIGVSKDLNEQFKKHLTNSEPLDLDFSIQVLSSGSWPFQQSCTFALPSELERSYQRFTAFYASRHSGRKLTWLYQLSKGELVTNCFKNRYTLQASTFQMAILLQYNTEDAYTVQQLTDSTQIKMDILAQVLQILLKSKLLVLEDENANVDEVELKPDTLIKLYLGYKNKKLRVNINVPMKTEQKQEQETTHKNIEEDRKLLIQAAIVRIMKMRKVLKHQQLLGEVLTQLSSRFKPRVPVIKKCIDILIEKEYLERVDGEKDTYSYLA

Columns and labels:
Myc-Skp1 = Myc-Skp1 (UniProt P63208); test: co-IP; lysates of transfected HeLa or 293 T cells in EBC buffer (50 mM Tris pH 8.0, 120 mM NaCl, 0.5% NP-40); 800 μg lysate with 1-2 μg antibody overnight at 4 °C, carrier beads 1 h, washes in NETN buffer, immunoblot; in some panels cells were treated with D4476 or UVC
Myc-Cullin 1 = Myc-Cullin 1 (UniProt Q13616); test: as above
HA-Set8 = biological target: T1, HA-Set8 (UniProt Q9NQR1); test: as above
T1 sequence: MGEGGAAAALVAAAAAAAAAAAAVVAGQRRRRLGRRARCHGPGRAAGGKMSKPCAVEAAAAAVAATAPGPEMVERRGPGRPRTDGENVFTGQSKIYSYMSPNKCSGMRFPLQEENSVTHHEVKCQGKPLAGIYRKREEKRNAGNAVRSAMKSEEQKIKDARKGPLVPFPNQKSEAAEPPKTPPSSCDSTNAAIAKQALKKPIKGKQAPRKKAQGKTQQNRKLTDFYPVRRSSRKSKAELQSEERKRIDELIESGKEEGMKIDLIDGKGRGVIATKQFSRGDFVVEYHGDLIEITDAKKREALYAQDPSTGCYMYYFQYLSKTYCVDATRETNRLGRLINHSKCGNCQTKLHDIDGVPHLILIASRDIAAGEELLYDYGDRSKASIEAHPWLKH

GST-β-TRCP1 = test: pull-down; GST pull-down from HeLa cells transfected with HA-Set8 and the indicated GST-F-box proteins; immunoblot
Myc-β-TRCP1 = test: co-IP; lysates of transfected HeLa or 293 T cells in EBC buffer (50 mM Tris pH 8.0, 120 mM NaCl, 0.5% NP-40); 800 μg lysate with 1-2 μg antibody overnight at 4 °C, carrier beads 1 h, washes in NETN buffer, immunoblot; in some panels cells were treated with D4476 or UVC
Flag-β-TRCP1 = test: as above
Flag-β-TRCP1-R474A = test: as above
HA-β-TRCP1 = test: as above

Flag-Set8^ΔPIP (from UniProt Q9NQR1)
binding (Myc-Skp1): binds
binding (Myc-Cullin 1): binds

endogenous β-TRCP1 (human (endogenous in HeLa))
binding (HA-Set8): binds

B1: HA-Set8 (protein, UniProt Q9NQR1 1-393)
chain: MGEGGAAAALVAAAAAAAAAAAAVVAGQRRRRLGRRARCHGPGRAAGGKMSKPCAVEAAAAAVAATAPGPEMVERRGPGRPRTDGENVFTGQSKIYSYMSPNKCSGMRFPLQEENSVTHHEVKCQGKPLAGIYRKREEKRNAGNAVRSAMKSEEQKIKDARKGPLVPFPNQKSEAAEPPKTPPSSCDSTNAAIAKQALKKPIKGKQAPRKKAQGKTQQNRKLTDFYPVRRSSRKSKAELQSEERKRIDELIESGKEEGMKIDLIDGKGRGVIATKQFSRGDFVVEYHGDLIEITDAKKREALYAQDPSTGCYMYYFQYLSKTYCVDATRETNRLGRLINHSKCGNCQTKLHDIDGVPHLILIASRDIAAGEELLYDYGDRSKASIEAHPWLKH
binding (GST-β-TRCP1): binds
binding (Myc-β-TRCP1): binds
binding (Flag-β-TRCP1): binds
binding (Flag-β-TRCP1-R474A): binds

B2: Flag-Set8 (protein, UniProt Q9NQR1 1-393)
chain: MGEGGAAAALVAAAAAAAAAAAAVVAGQRRRRLGRRARCHGPGRAAGGKMSKPCAVEAAAAAVAATAPGPEMVERRGPGRPRTDGENVFTGQSKIYSYMSPNKCSGMRFPLQEENSVTHHEVKCQGKPLAGIYRKREEKRNAGNAVRSAMKSEEQKIKDARKGPLVPFPNQKSEAAEPPKTPPSSCDSTNAAIAKQALKKPIKGKQAPRKKAQGKTQQNRKLTDFYPVRRSSRKSKAELQSEERKRIDELIESGKEEGMKIDLIDGKGRGVIATKQFSRGDFVVEYHGDLIEITDAKKREALYAQDPSTGCYMYYFQYLSKTYCVDATRETNRLGRLINHSKCGNCQTKLHDIDGVPHLILIASRDIAAGEELLYDYGDRSKASIEAHPWLKH
binding (HA-β-TRCP1): binds

B3: HA-S253A-Set8 (protein, UniProt Q9NQR1 1-393)
chain: MGEGGAAAALVAAAAAAAAAAAAVVAGQRRRRLGRRARCHGPGRAAGGKMSKPCAVEAAAAAVAATAPGPEMVERRGPGRPRTDGENVFTGQSKIYSYMSPNKCSGMRFPLQEENSVTHHEVKCQGKPLAGIYRKREEKRNAGNAVRSAMKSEEQKIKDARKGPLVPFPNQKSEAAEPPKTPPSSCDSTNAAIAKQALKKPIKGKQAPRKKAQGKTQQNRKLTDFYPVRRSSRKSKAELQSEERKRIDELIEAGKEEGMKIDLIDGKGRGVIATKQFSRGDFVVEYHGDLIEITDAKKREALYAQDPSTGCYMYYFQYLSKTYCVDATRETNRLGRLINHSKCGNCQTKLHDIDGVPHLILIASRDIAAGEELLYDYGDRSKASIEAHPWLKH
binding (Flag-β-TRCP1): no binding

B4: Flag-Set8^S253A (protein, UniProt Q9NQR1 1-393)
chain: MGEGGAAAALVAAAAAAAAAAAAVVAGQRRRRLGRRARCHGPGRAAGGKMSKPCAVEAAAAAVAATAPGPEMVERRGPGRPRTDGENVFTGQSKIYSYMSPNKCSGMRFPLQEENSVTHHEVKCQGKPLAGIYRKREEKRNAGNAVRSAMKSEEQKIKDARKGPLVPFPNQKSEAAEPPKTPPSSCDSTNAAIAKQALKKPIKGKQAPRKKAQGKTQQNRKLTDFYPVRRSSRKSKAELQSEERKRIDELIEAGKEEGMKIDLIDGKGRGVIATKQFSRGDFVVEYHGDLIEITDAKKREALYAQDPSTGCYMYYFQYLSKTYCVDATRETNRLGRLINHSKCGNCQTKLHDIDGVPHLILIASRDIAAGEELLYDYGDRSKASIEAHPWLKH
binding (HA-β-TRCP1): no binding
